The target of the assay is FliW-T25 (Clostridioides difficile) (UniProt Q18CX4). Kind of assay: two-hybrid.

The chains behind the UniProt entries cited, without tags or fusion partners.
UniProt Q18CX4, whole entry: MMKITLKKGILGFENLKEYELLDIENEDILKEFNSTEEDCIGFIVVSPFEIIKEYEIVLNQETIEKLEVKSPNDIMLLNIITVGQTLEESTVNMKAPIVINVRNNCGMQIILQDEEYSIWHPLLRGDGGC
UniProt Q18CX3, whole entry: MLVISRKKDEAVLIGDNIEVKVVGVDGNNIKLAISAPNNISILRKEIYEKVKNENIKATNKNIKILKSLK

These are yes or no findings as the source states them, for the method shown. Some binding calls cover weakened binding; strength is not graded here.

Turning to CsrA-T18 (from UniProt Q18CX3 1-70), the binding result was “binds”.

These data come from doi:10.1101/2022.11.08.515568.
